At least one structure is not confirmed: it was looked up by name or label, or the drawing left a doubt. Numbered stars: 1 amine (or outer) side, 2 acyl side, 3 side chain; on linkers, the order of the positions; unused ones are H or OH. Square brackets hold non-standard residues; d marks the D form. Side chains are listed from the residue outwards. Peptide text beside a SMILES is read from it. * marks the point of attachment. εLys = N[C@@H](CCCCN[*:1])C(=O)[*:2]; Palmitoyl = CCCCCCCCCCCCCCCC(=O)*; Aib = CC(C)(N)C(=O)O
Biological target: T1, human GLP-1R (Homo sapiens, UniProt P43220)
T1 construct: expressed in transfected cells
Test: GLP-1 receptor efficacy assay (cAMP formation in HEK293 cells expressing human GLP-1R)
Format: cell-based
Conditions: Table 1a, HEK293 cells expressing hGLP-1R
Method: The 5′-end primers additionally encoded a near Kozak consensus sequence to ensure efficient translation.
48 hr after transfection cells were seeded for limited dilution cloning and selected with 1 mg/ml G418 in the culture medium.
On the day of analysis, growth medium was removed and the cells washed once with 200 μl Tyrode buffer. […] The reaction was stopped by addition of 25 μl 0.5 M HCl and incubated on ice for 60 min. The cAMP content was estimated using the FlashPlate® cAMP kit from Perkin-Elmer.
Efficacy of the GluGLP-1 agonists were estimated by exposing cells expressing hGlucagonR and hGLP-1R to the listed acylated compounds at increasing concentrations and measuring the formed cAMP as described in Methods.

Sequences of proteins named here, by UniProt entry; tags and fusion partners are left off. Residues count along the entry.
UniProt P43220, 24-463: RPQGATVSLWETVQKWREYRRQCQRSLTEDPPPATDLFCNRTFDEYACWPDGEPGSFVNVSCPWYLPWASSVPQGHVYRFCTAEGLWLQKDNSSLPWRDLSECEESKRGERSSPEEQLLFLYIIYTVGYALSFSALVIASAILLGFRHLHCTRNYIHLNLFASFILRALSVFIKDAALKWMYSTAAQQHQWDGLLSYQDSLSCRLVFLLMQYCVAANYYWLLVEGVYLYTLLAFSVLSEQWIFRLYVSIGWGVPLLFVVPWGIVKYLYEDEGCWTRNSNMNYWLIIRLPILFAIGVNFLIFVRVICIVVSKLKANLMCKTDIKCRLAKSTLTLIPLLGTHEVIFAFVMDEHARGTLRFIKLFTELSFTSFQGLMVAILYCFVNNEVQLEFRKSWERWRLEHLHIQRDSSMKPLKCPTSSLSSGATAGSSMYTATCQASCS

Q: Which EC50 does the source give for `CCCCCCCCCCCCCCCC(=O)NCCCC[C@H](N)C(=O)NCCCC[C@H](NC(=O)[C@H](CO)NC(=O)[C@H](CC(=O)O)NC(=O)[C@H](CC(C)C)NC(=O)[C@H](Cc1ccc(O)cc1)NC(=O)[C@H](CCCCN)NC(=O)[C@H](CO)NC(=O)[C@H](Cc1ccc(O)cc1)NC(=O)[C@H](CC(=O)O)NC(=O)[C@H](CO)NC(=O)[C@@H](NC(=O)[C@H](Cc1ccccc1)NC(=O)[C@@H](NC(=O)CNC(=O)[C@H](CCC(N)=O)NC(=O)C(C)(C)NC(=O)[C@@H](N)Cc1c[nH]cn1)[C@@H](C)O)[C@@H](C)O)C(=O)N[C@@H](C)C(=O)N[C@@H](C)C(=O)N[C@@H](Cc1c[nH]cn1)C(=O)N[C@@H](CC(=O)O)C(=O)N[C@@H](Cc1ccccc1)C(=O)N[C@H](C(=O)N[C@@H](CCC(=O)O)C(=O)N[C@@H](Cc1c[nH]c2ccccc12)C(=O)N[C@@H](CC(C)C)C(=O)N[C@@H](CC(C)C)C(=O)N[C@@H](CO)C(=O)N[C@@H](C)C(N)=O)C(C)C` [Compound 30] here?
A: 0.132 nM

Q: How did the EC50 turn out when `CCCCCCCCCCCCCCCC(=O)NCCCC[C@H](N)C(=O)NCCCC[C@H](NC(=O)[C@H](CO)NC(=O)[C@H](CC(=O)O)NC(=O)[C@H](CC(C)C)NC(=O)[C@H](Cc1ccc(O)cc1)NC(=O)[C@H](CCCCN)NC(=O)[C@H](CO)NC(=O)[C@H](Cc1ccc(O)cc1)NC(=O)[C@H](CC(=O)O)NC(=O)[C@H](CO)NC(=O)[C@@H](NC(=O)[C@H](Cc1ccccc1)NC(=O)[C@@H](NC(=O)CNC(=O)[C@H](CCC(N)=O)NC(=O)C(C)(C)NC(=O)[C@@H](N)Cc1c[nH]cn1)[C@@H](C)O)[C@@H](C)O)C(=O)N[C@@H](C)C(=O)N[C@@H](C)C(=O)N[C@@H](CCCNC(=N)N)C(=O)N[C@@H](CC(=O)O)C(=O)N[C@@H](Cc1ccccc1)C(=O)N[C@H](C(=O)N[C@@H](C)C(=O)N[C@@H](Cc1c[nH]c2ccccc12)C(=O)N[C@@H](CC(C)C)C(=O)N[C@@H](CC(C)C)C(=O)N[C@@H](CCCNC(=N)N)C(=O)N[C@@H](C)C(N)=O)C(C)C` [Compound 38] (H-H[Aib]QGTFTSDYSKYLDSK([εLys-Palmitoyl])AARDFVAWLLRA-NH2) was run?
A: 0.132 nM

Source: patent US10004786B2 (Zealand Pharma A/S, priority 2009, dated 2018)
